Our source for the binding signal values is paper PMC7819943, “Rice protein-binding microarrays: a tool to detect cis-acting elements near promoter regions in rice”.

The list shows a part of the results.

This experiment has as its target T1, OsSMF1 (Oryza sativa, UniProt Q6ZLB0 1-436).
T1 sequence: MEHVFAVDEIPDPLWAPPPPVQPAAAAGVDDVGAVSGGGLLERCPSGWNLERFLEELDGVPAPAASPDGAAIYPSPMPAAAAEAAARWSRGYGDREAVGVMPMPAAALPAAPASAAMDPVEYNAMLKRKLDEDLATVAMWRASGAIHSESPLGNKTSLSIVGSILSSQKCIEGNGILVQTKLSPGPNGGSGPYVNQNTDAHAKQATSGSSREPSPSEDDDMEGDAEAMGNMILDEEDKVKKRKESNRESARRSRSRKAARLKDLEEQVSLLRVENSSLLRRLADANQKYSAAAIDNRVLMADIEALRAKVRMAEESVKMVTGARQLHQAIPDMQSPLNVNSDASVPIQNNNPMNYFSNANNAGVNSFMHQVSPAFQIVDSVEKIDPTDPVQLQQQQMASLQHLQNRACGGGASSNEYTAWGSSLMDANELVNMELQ
The experiment can be described thus: protein-binding microarray (RPBM); PBS, 2% BSA, 51.3 ng/ul salmon testes DNA, 50 uM zinc acetate, 200 nM TF, 25 C, 1 h; high values mean tight binding. As to conditions: protein: recombinant; tags: N-terminal polyhistidine and DsRed monomer fusion (pET32a); chain copies: 2; label: CyDye5-dUTP incorporated in the synthesized complementary strand; 3' TTTTT single-stranded linker to array surface; dsDNA, one strand shown. The essentials:
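For the binding signal, per-feature fluorescence intensity was read in arbitrary units on an Axon 4000B scanner. Before scanning, a 2% BSA-blocked custom Agilent array made double-stranded with Cy5-dUTP was washed after 1 h at 25 °C with 200 nM protein and 50 µM zinc acetate. The proteins were Ni–NTA-purified transcription factors with N-terminal polyhistidine and DsRed fusions, expressed in E. coli BL21-CodonPlus.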
Turning to “TTCCACGATCCCCACCTCACCAAATCGAATCGACCGCGAACGGAGTCACCTAGTGCAG”, the binding signal was 3940 fluorescence intensity (a.u.).
As to “CTCGTAACACCTACACTACACGTATGAGCTGAACCCACCGCGGAGTCACCTAGTGCAG”, the binding signal was 5340 fluorescence intensity (a.u.).
Take “AATATTTTACAATTTTAATAATGATGTCATCTATAGCTCTCGGAGTCACCTAGTGCAG”: the binding signal was 5700 fluorescence intensity (a.u.).
On to “AACCCGCCCGGCCGCCACACACGCCTCTCTAGCTACCCGGCGGAGTCACCTAGTGCAG”, for which the binding signal was 4040 fluorescence intensity (a.u.).
As to “CCACCACAGTGACCACTCCGCCCGTCTCTCCTCCTGATCGCGGAGTCACCTAGTGCAG”, the binding signal is 3810 fluorescence intensity (a.u.).
The value for “TCTCGTCGAGAGCTATAATTTCCATATAAAATTTGTCTCACGGAGTCACCTAGTGCAG” was 31000 fluorescence intensity (a.u.); that for “TTGACCACACTCTTTCCGTTCCCCTCCCAAAGGCGTATTTCGGAGTCACCTAGTGCAG” was 3590 fluorescence intensity (a.u.).
“CCCGCTTCTGCCCTCCTAAGTTCCGTCATCACCGTTATCACGGAGTCACCTAGTGCAG”: the binding signal was 4210 fluorescence intensity (a.u.).
On to “TTTAGAAGAACAAAATGCTGACAAATCCTGGTCATTTCTTCGGAGTCACCTAGTGCAG”, for which the binding signal was 5050 fluorescence intensity (a.u.).
For the sequence “AGCTTCTCGTCGAGTGGCGGCGGCGGCGGCGGCGGAGGCTCGGAGTCACCTAGTGCAG”, the binding signal was 33700 fluorescence intensity (a.u.).
As to “GGAATTATTCTAAGTTGAATTCATATTAGTTGTACTTCACCGGAGTCACCTAGTGCAG”, the binding signal is 3160 fluorescence intensity (a.u.).
Turning to “TACTTGGTCTAAGTGCTGTGCCACGCCTTGCCGGTCTCAACGGAGTCACCTAGTGCAG”, the binding signal was 4980 fluorescence intensity (a.u.).
As for “AATGTATCATCATTCATCAGCAAAACAGACGAACAGGTTGCGGAGTCACCTAGTGCAG”, the binding signal was 4390 fluorescence intensity (a.u.).
In the case of “TGCGCAAGGACGTGGCCTCTGCTGTGGTTGGTCATACAACCGGAGTCACCTAGTGCAG”, the binding signal was 7460 fluorescence intensity (a.u.).
As for “GATCCGCATCACTGATTCACTGCACTTCGCCCGCCGTCTGCGGAGTCACCTAGTGCAG”, the binding signal is 3960 fluorescence intensity (a.u.).
In the case of “TTGAGTCTTAGACGCCAATGAATATTTGTTAGTCATTCGCCGGAGTCACCTAGTGCAG”, the binding signal was 3590 fluorescence intensity (a.u.).
Consider “TGTCGTTGTATACGTTGATTGCGTGTATAAGTAATATATGCGGAGTCACCTAGTGCAG”, for which the binding signal is 3970 fluorescence intensity (a.u.).
Consider “TTCCTTTACTACCATATTGGTGAGGATTATCTCTACCCAACGGAGTCACCTAGTGCAG”, for which the binding signal was 3670 fluorescence intensity (a.u.).
On to “GCCCAAACAAGTCACTCAGCAGTCAGCAGGTCTCACAGGCCGGAGTCACCTAGTGCAG”, for which the binding signal was 4680 fluorescence intensity (a.u.).
Turning to “GGCAGGACGGCAGGAGGCCTGTTCGCTTGAGGTGTCTAGCCGGAGTCACCTAGTGCAG”, the binding signal is 39800 fluorescence intensity (a.u.).
Regarding “TTTGGCCATGTCATCTAGAGCTTTAGTTTATAATACTTCACGGAGTCACCTAGTGCAG”, the binding signal was 4360 fluorescence intensity (a.u.).
The value for “AATCAGAGCCGAAAGCTCCAAGCTTTCCCGTTTTCAAGCCCGGAGTCACCTAGTGCAG” was 19000 fluorescence intensity (a.u.); that for “AACACACGACTATTACGAACATCCCTCGTCAGCACCCATGCGGAGTCACCTAGTGCAG” was 7300 fluorescence intensity (a.u.).
As for “GTATTCTCAGGTTCGATTTCCACAAGGAACATGTGTGTCACGGAGTCACCTAGTGCAG”, the binding signal is 4270 fluorescence intensity (a.u.).
Regarding “TATTTCCCTTACAAAATGATGAGTTGGTGTGTGCGCGCAGCGGAGTCACCTAGTGCAG”, the binding signal was 3720 fluorescence intensity (a.u.).
Turning to “AGTTGACGTGGCATACTGACACGTGGGCCCCATGTGGGTTCGGAGTCACCTAGTGCAG”, the binding signal was 24900 fluorescence intensity (a.u.).
Consider “CTGGAGGGAGTATTTGATAACCCTGCTATATGTAGGGCTCCGGAGTCACCTAGTGCAG”, for which the binding signal is 32800 fluorescence intensity (a.u.).
Take “ACGCCGCGAGATATCCCCGTCACGAATATTCCTCTTCCTCCGGAGTCACCTAGTGCAG”: the binding signal was 5260 fluorescence intensity (a.u.).
“AATTCATACTGAATTCATTTACTACGTGTATGATTCATGACGGAGTCACCTAGTGCAG”: the binding signal was 4620 fluorescence intensity (a.u.).
On to “TCAGCTAGCTCGATCACACGCCAACACACCAAGCTAGTCGCGGAGTCACCTAGTGCAG”, for which the binding signal is 3780 fluorescence intensity (a.u.).
The figure for “TAAATTAAATTGCTACGTAAGTGCCACGTCATATTAAGATCGGAGTCACCTAGTGCAG” is 12500 fluorescence intensity (a.u.).
As for “TAATTTCATCTTGATGGACACGTGGTTTGTCGATGTACACCGGAGTCACCTAGTGCAG”, the binding signal was 10100 fluorescence intensity (a.u.).
Take “CCCTTCACTCCCCGTCGCATCGCATCTTGGCTGACTCGTCCGGAGTCACCTAGTGCAG”: the binding signal was 4960 fluorescence intensity (a.u.).
Take “CGGATTCACTGCAATAGCCTCCCTGTCATCGCCAACGCCCCGGAGTCACCTAGTGCAG”: the binding signal is 3300 fluorescence intensity (a.u.).
With “TCATAACCACCCACAGAGGTCAGTAAGGTGGCTCAGAGATCGGAGTCACCTAGTGCAG”, the binding signal is 3480 fluorescence intensity (a.u.).
For the sequence “CTTGCTGTCCTCTCGTTTCCTGTGTCATTCTCGCGCGCCACGGAGTCACCTAGTGCAG”, the binding signal was 3540 fluorescence intensity (a.u.).
The figure for “AAAGTTTGCCACCACTGACTAGGATTTAGTCGTCCGCACGCGGAGTCACCTAGTGCAG” is 4240 fluorescence intensity (a.u.); for “TAGTTTCCACTCCCTCTCCTCGGGGAGTCGTTGCTGTTCTCGGAGTCACCTAGTGCAG” it is 3350 fluorescence intensity (a.u.).
Regarding “GTGTGATTATCTTCTCCATACCATCTCGTGCTACATGCGCCGGAGTCACCTAGTGCAG”, the binding signal is 40000 fluorescence intensity (a.u.).
The figure for “CACCCACTGCCAGTGGGGCCCACTAGCCCACCTCACCCACCGGAGTCACCTAGTGCAG” is 3360 fluorescence intensity (a.u.); for “ACCAGCCAAATCGCGTCCAGTCACCACCTCTTGTTCGGTTCGGAGTCACCTAGTGCAG” it is 4150 fluorescence intensity (a.u.).
Consider “ACTCTGCCGGCAGGCGTACGTGTGTCCCGGCATTTGGTCGCGGAGTCACCTAGTGCAG”, for which the binding signal is 4500 fluorescence intensity (a.u.).
Consider “GACTTTCGTACGTACGTACTACGTGTTCAGCTAGCCGTTCCGGAGTCACCTAGTGCAG”, for which the binding signal was 3190 fluorescence intensity (a.u.).
The value for “CACCACTACCACGATCAGGCCCAAGAGATGATAAAGTGGCCGGAGTCACCTAGTGCAG” was 46500 fluorescence intensity (a.u.); that for “ATTCACAAAAGCTCTCGGCGAGTACGTGGGTCAATGGTGACGGAGTCACCTAGTGCAG” was 4210 fluorescence intensity (a.u.); that for “TGTAGGTGCCATTGATTTCATTTTGCATCAGCAAGAGCATCGGAGTCACCTAGTGCAG” was 3600 fluorescence intensity (a.u.).
“AGCAGCGACTCCCTGGCGCCGCCGCACTCGCCGGCCGTCACGGAGTCACCTAGTGCAG”: the binding signal was 21900 fluorescence intensity (a.u.).
On to “CTAAGCACGATTAGTGCTAAGCACGTCATTAGCGAACGTGCGGAGTCACCTAGTGCAG”, for which the binding signal was 5950 fluorescence intensity (a.u.).
“AAAATGAAGTGGTTACCAAGTTTTCTACGTTAGCAAGAACCGGAGTCACCTAGTGCAG”: the binding signal is 26900 fluorescence intensity (a.u.).
In the case of “TGATTTCAACCTTACGTGTACACCATATTAGCCACAATAACGGAGTCACCTAGTGCAG”, the binding signal is 4270 fluorescence intensity (a.u.).
Consider “CGACTGAAGACTTGGACACGGTCAGTCTTTCTGCCGTGTTCGGAGTCACCTAGTGCAG”, for which the binding signal is 5080 fluorescence intensity (a.u.).
In the case of “ATCGAGAGAAAAGAAGCAAGGTAACACAGATTAATCATCCCGGAGTCACCTAGTGCAG”, the binding signal is 5630 fluorescence intensity (a.u.).
With “CCCCTTCGATACAAACGAAGCCGCCGCTCCGCATCAGCAGCGGAGTCACCTAGTGCAG”, the binding signal was 4920 fluorescence intensity (a.u.).
Take “AAACCCTCGCAACGTATCATGCCACATAATGCCACATAGACGGAGTCACCTAGTGCAG”: the binding signal is 3890 fluorescence intensity (a.u.).
